In patent US20230331829A1 (KOREA ADVANCED INSTITUTE OF SCIENCE AND TECHNOLOGY, published 2023):

Biological target: C-terminal recombinant protein including the homeodomain of the PROX1 protein
Assay: chicken antibody phage display screening

B1: anti-PROX1-single chain Fv-His (clone #1A11) (scFv, V domains shown)
VH: AVTLDESGGGLQTPGGGLSLVCKASGFTFSSYAMNWVRQAPGKGLEWVAAIDDDGSYTGYGSAVKGRATISRDNGQSTVRLQLNNLRAEDTAIYYCAKAAGSGYCYRGANSSYTCGTYNAGDIDAWGHGTEVIVSS
VL: LTQPSSVSANLGETVEITCSGGSGSYGWYQQKSPGSAPVTLIYDNANRPSNIPSRFSGSKSGSTGTLTITGVRAEDEAVYYCGNVDSSTYVGMFGAGTTLTVL
notes: One polypeptide (scFv from a chicken antibody phage display library) with a hexa-histidine tag; used as phage periplasmic supernatant; also called anti-PROX1-scFv-His; scFv-His
With B1 the binding was “binds”.

These are yes or no findings as the source states them, for the method shown. Binding can be weak; no strength is given. Where a sequence is shown, tags or fusion partners need not be part of it.
